Laboratory results from publication PMC11269944.
These are yes or no findings as the source states them, for the method shown. In cells and extracts the contact can be indirect. Some entries that bind do so weakly or less than the wild type. Sequences can lack the tags named with a protein.

Protein sequences, listed by entry. Tags and fused reporters are not part of them. Lines headed by an entry give the natural chain unless they say otherwise; changes in a name come on top.
UniProt Q9BRT9: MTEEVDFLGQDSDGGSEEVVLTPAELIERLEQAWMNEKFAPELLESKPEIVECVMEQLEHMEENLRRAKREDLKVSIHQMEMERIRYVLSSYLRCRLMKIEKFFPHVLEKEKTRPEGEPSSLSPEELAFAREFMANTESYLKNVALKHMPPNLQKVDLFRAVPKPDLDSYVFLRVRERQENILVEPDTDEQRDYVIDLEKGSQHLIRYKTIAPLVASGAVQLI
UniProt Q14691: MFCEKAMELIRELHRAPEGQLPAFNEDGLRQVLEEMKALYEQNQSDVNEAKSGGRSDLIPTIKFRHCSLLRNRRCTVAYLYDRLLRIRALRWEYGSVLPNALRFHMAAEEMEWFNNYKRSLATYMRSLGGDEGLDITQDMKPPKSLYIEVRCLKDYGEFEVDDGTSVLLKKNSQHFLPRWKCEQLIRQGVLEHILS
UniProt Q9Y248: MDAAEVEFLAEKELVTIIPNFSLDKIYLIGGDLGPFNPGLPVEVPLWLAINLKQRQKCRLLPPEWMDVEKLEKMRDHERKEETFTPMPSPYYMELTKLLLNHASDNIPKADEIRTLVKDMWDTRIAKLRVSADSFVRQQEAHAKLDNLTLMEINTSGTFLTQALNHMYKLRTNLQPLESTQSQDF
UniProt Q9BRX5: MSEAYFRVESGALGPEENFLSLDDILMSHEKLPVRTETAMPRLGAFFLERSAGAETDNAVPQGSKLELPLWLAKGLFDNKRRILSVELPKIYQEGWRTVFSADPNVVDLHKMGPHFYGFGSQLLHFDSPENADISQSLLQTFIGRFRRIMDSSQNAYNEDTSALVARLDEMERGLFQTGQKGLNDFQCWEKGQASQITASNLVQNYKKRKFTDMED

Legend:
FLAG-tagged LRR1 (human) = biological target: T1, FLAG-tagged LRR1 (human) (UniProt Q96L50); assay: co-IP; chromatin extracts of FLAG-LRR1 or FLAG-LRR1ΔVHL expressing cells synchronised in S phase by release from DTB; 1 mg chromatin lysate with FLAG M2 beads, 2 h, 4°C; western blotting
T1 sequence: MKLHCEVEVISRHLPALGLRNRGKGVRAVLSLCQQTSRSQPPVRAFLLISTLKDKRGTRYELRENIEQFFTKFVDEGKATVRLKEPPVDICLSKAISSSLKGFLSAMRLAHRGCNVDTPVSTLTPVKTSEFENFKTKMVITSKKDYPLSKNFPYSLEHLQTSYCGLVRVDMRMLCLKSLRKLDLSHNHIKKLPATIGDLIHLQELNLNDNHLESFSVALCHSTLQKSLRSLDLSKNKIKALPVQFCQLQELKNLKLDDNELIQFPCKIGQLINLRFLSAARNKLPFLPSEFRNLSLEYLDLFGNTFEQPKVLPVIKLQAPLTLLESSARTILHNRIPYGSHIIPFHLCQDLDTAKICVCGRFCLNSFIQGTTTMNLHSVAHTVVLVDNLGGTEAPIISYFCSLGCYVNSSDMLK

[1] = biological target: T2, GINS complex (SLD5, PSF1-3) (human (endogenous in U2OS and HCT116)) (UniProt Q9BRT9+Q14691+Q9Y248+Q9BRX5); assay: co-IP; GINS immunoprecipitated (Dynabeads Protein A coated with GINS antibodies, 2 h, 4°C) from S phase (DTB release) chromatin extracts of FLAG-LRR1 or FLAG-LRR1ΔVHL expressing cells; blot for FLAG
[2] = biological target: T2, GINS complex (SLD5, PSF1-3) (human (endogenous in U2OS and HCT116)); assay: co-IP; chromatin extracts of mAC-LRR1 expressing HCT116 cells synchronised in S phase (lovastatin release), treated with p97i (5 μM); immunoprecipitation with GINS antibody on Dynabeads Protein A, 2 h, 4°C

**Q.** “GINS complex (SLD5, PSF1-3) (from UniProt Q9BRT9 1-223; Q14691 1-196; Q9Y248 1-185; Q9BRX5 1-216)” was tested. Which binding (FLAG-tagged LRR1 (human)) did it give?
**A.** binds

B1: FLAG-tagged LRR1 (protein, UniProt Q96L50 1-414)
chain: T1 sequence
**Q.** With B1 as the molecule, how does the binding [1] read?
**A.** binds

B2: mAC-LRR1 (endogenous LRR1 tagged N-terminally with mini AID tag fused to mClover) (protein, UniProt Q96L50 1-414)
chain: T1 sequence
**Q.** For B2, which binding [2] is on record?
**A.** binds
